No constants are given. Whether binding was seen depends on the method and setting. In cells and extracts the contact can be indirect. Binding can be weak; no strength is given.
Target: T1, CG9890 protein (D. melanogaster (endogenous in S2)) (UniProt Q9W1V7)
T1 sequence: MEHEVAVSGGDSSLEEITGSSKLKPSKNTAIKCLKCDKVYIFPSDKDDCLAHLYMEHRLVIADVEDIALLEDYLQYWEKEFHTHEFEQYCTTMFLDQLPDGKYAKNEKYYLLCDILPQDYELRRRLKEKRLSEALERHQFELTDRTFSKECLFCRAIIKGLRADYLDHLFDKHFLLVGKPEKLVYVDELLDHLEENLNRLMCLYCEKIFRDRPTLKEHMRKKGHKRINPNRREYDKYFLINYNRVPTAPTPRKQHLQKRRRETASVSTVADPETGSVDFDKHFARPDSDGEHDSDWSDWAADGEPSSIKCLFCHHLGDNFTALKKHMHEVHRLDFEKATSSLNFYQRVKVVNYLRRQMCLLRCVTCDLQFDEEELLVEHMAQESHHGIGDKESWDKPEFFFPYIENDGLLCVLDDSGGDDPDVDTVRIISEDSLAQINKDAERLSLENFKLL
Experiment: co-IP; immunoprecipitation with polyclonal anti-CG9890 antibodies immobilised on Mab-sepharose from S2 nuclear lysate (MN III buffer: 20 mM HEPES KOH, 3 mM MgCl2, 0.1% NP40, 0.1 M KCl, pH 8.0; sonicated, DNase I treated), 3 h at +4 °C; Western blot; IgG of an unimmunized rabbit as negative control

Polybromo (PB) protein, subunit of the dSWI/SNF complex (D. melanogaster (endogenous in S2))
binding: binds
